Measured values taken from patent US4567162A (Farmitalia Carlo Erba, priority 1983, dated 1986).

Experiment: general procedure: solution-phase peptide synthesis; ethyl chloroformate / NMM (mixed anhydride)
Settings: HCl

| Substance | step yield (coupling step) [% yield] | step yield (late stage modification step) [% yield] |
| --- | --- | --- |
| Boc-LGWM-OMe | 60 | – |
| Boc-VPPLGWM-OH | – | 81 |
| Boc-VPPLGWM-OMe | 80 | – |
| H-Val-Pro-Pro-Leu-Gly-Trp-Met-NH2.HCl | – | 68 |
| HCl.H-Leu-Gly-Trp-Met-OMe | – | 77 |
| PEPTIDE1{V.P.P.L.G.W.M.[OMe]}$$$$V2.0 | – | 75 |
| PEPTIDE1{V.P.P.L.G.W.M}$$$$V2.0 | – | 72 |

HELM strings list residues between dots; [ac] is acetyl, [am] amide, other brackets name non-standard units. * marks the point of attachment. Boc = CC(C)(C)OC(=O)*
